Measurements reported in PubChem BioAssay (NCATS).
The shares of active, inactive and inconclusive entries below differ from those in the screen. For some assays here: Where the call is inconclusive, the potency comes from a doubtful curve fit. For some assays here: A note “side channel” means that the fit belongs to a control or component signal, not to the main read-out. The source made the active and inactive calls. Unless noted, calls follow the shape of the dose curve; as a rule, active = well fitted cell-killing curve with a large enough effect; inconclusive = small, poorly fitted or top-dose-only effect, or effect the other way; inactive = flat fitted curve, though single readings scatter.

Protein sequences, listed by entry. Tags and fused reporters are not part of them. Lines headed by an entry give the natural chain unless they say otherwise; changes in a name come on top.
UniProt P10828: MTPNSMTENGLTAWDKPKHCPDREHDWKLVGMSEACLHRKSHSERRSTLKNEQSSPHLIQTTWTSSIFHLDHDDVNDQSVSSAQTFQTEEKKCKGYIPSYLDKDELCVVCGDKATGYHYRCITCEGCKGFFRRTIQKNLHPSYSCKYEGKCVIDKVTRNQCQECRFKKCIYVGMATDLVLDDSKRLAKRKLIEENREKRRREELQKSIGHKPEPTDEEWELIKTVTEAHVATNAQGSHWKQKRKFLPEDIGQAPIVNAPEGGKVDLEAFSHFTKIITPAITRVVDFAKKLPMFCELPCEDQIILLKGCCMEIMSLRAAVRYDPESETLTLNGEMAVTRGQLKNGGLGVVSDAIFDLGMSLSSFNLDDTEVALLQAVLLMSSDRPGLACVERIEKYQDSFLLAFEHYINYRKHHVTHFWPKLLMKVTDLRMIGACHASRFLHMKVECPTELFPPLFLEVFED
UniProt P19793: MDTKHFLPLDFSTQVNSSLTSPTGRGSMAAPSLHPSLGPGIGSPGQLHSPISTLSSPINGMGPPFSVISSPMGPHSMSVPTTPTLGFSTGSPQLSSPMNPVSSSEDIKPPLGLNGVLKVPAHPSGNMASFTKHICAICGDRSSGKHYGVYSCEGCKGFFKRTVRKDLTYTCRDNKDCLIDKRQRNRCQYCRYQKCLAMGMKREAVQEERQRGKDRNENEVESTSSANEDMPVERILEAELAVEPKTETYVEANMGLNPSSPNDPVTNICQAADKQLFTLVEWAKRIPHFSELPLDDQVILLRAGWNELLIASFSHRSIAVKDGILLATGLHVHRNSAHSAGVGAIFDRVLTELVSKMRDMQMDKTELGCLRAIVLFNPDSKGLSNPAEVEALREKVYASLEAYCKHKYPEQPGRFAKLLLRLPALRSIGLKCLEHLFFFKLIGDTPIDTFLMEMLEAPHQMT

Assays:
[1] = biological target: Thyroid hormone receptor beta (Homo sapiens) (UniProt P10828); assay: qHTS assay for small molecule agonists of thyroid hormone receptor beta signaling (AID 588545; calls by dose curve;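 also: 0% = DMSO only and 100% = 10 nM T3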); details: TR-UAS-bla GripTite HEK 293, beta-lactamase ratio, agonist mode, 18 h; activation: at 76.7 µM, percent of T3 response, DMSO as zero
Outline: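 Beta-lactamase reporter activity under TR response element control is measured in HEK 293 cells after 18 hrs compound exposure. Signal is ratiometric CCF4 fluorescence, 460/530 nm.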

[2] = biological target: Retinoic acid receptor RXR-alpha (Homo sapiens) (UniProt P19793); assay: qHTS assay for small molecule antagonists of retinoid X receptor alpha signaling (AID 588546; active = well fitted inhibition curve with a large enough effect in the signal ratio, with a control signal flat, not every such curve was filed as active; inconclusive = small, poorly fitted or top-dose-only effect, or effect the other way, or a change in a side signal; inactive = no such curve, though single readings can be large or run the other way; the % refers to the signal ratio; also: potency is read from the fitted curve at half-maximal effect); details: HEK293T RXRa-UAS-bla, beta-lactamase ratio, antagonist mode
Outline: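 Beta-lactamase reporter inhibition, read as CCF4 fluorescence ratio (ex 405, em 460/530 nm) after 2 h at RT. HEK293T UAS-bla cells, 2500/well, were stimulated with 9-cis-RA at 500 or 100 nM final alongside test compound for 18 h at 37 C.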

[3] = qHTS assay for small molecule activators of the nuclear factor-kappa B (NF-kB) signaling pathway (AID 651749; active = well fitted activation curve with a large enough effect in the signal ratio; inconclusive = small, poorly fitted or top-dose-only effect, or a change in a side signal; the % refers to the signal ratio; also: potency is read from the fitted curve at half-maximal effect); details: NF-kB-bla ME-180 cells, beta-lactamase FRET ratio, 16 h
Outline: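 NF-kB-bla ME-180 cells, 2,000/well; 23 nL compound or DMSO pinned; 16 hr, 37C/5% CO2; beta-lactamase FRET read-out.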

[4] = qHTS assay for cell viability of HEK293 cells (AID 743288); details: ATP luminescence (CellTiter-Glo), 18 h; max response: hits give low values; also: potency is read from the fitted curve at half-maximal effect; nearly all actives have a fitted effect of over 50% in size
Outline: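 Quantitative high-throughput screen: compounds were pinned onto parental HEK293 cells (2,000 per well) after a minimum 5 h settling at 37 C, incubated 18 h at 37 C, and intracellular ATP measured by luciferase luminescence.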

[5] = qHTS assay for cell viability of the p53RE-bla HCT-116 cell line (AID 743292); details: p53RE-bla HCT-116 viability, ATP luminescence, 16 h; also: potency is read from the fitted curve at half-maximal effect; nearly all actives have a fitted effect of over 55% in size
Outline: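 CellSensor p53RE-bla HCT-116 cells, 4,000/well, preincubated 5 h at 37 C, then exposed to compounds in DMSO for 16 h at 37 C. Viability read as CellTiter-Glo luminescence (intracellular ATP) after 30 min at room temperature.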

Question: For `O=S(=O)(c1ccccc1)N(CC(F)(F)F)c1ccc(C(O)(C(F)(F)F)C(F)(F)F)cc1`, which activation [1] is on record?
Answer: Its activation is inactive: -9.14%.

Question: And the Potency [2]?
Answer: The Potency was active: 12.6 µM.

Question: What about the Potency [3] of the same compound?
Answer: Its Potency is inconclusive: 50.1 µM [side channel, falling, single point].

Question: And the Potency [4]?
Answer: Its Potency is inconclusive: 70.8 µM [cytotoxic, partial curve, poor fit].

Question: What about the Potency [5] of the same compound?
Answer: Its Potency is inconclusive: 70.8 µM [cytotoxic, single point].
